Experimental data: US20050137135A1 (priority 2002, published 2005)
Results are given in words; binding and its absence hold for the method and conditions named.

B1: GIP1-14 peptide with alanine at position 3 (alanine scan, formula 4b) (peptide)
peptide: YAAGTFISDYSIAM
B2: GIP1-14 peptide with alanine at position 5 (alanine scan, formula 4d) (peptide)
peptide: YAEGAFISDYSIAM

Biological target: T1, rat pancreatic islet (wild type) GIP-receptor stably expressed on CHO-K1 cells (rat) (UniProt P43219)
T1 sequence (looked up): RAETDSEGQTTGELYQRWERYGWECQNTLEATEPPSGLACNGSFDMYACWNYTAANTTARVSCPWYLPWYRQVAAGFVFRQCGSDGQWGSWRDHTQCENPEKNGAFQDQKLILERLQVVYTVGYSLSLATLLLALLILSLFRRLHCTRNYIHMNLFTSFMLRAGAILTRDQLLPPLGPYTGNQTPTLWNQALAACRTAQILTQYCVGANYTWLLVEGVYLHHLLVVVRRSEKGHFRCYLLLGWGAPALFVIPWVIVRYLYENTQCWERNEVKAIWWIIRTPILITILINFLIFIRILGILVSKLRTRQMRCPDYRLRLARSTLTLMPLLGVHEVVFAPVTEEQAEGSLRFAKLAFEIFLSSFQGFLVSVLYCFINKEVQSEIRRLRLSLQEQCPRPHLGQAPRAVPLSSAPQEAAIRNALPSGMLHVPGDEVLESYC
Assay: displacement of 125I-GIP from intact wtGIPR cells (FIG. 9)

Row | Binder | binding
1 | B1 | no binding (tested: 50 micromolar)
2 | B2 | no binding (tested: 50 micromolar)
